PubChem BioAssay AID743454 | Peter MacCallum Cancer Centre | 2014
The deposit covers about 18,000 reagents; shown is a random part of them. 450 of all reagents (2.5%) were called active. 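Single biological run; no consistent viability z cut-off exists, so the class columns, not z-scores, define the calls.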 Entries without a mark were called inactive.

Aim: 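Knock-downs lowering viability or raising caspase 3/7 activity in vorinostat-treated resistant cells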 (primary screen)
System: human HCT116-VR colon cancer cells, selected for vorinostat resistance
Reagent: siRNA pool against human genes, 40 nM siRNA pool
Time to read-out: vorinostat for 24 h, read-out about 72 h after transfection
Treatment: vorinostat at 2.5 µM final
Detection: 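Cell viability by CellTiter-Fluor and caspase 3/7 activity by luminescence, each scaled to mock wells per plate, duplicates averaged, then robust z-scored over all plates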
Reading the numbers: viability robust z-score: higher = more viable cells than screen typical; caspase robust z-score: higher = more caspase 3/7 activity than screen typical
Active means: 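Hits are knock-downs in viability class RV1/RV2 or caspase class CA1/CA2, excluding ones that killed cells in the no-drug cell-count arm; hits then retested with single siRNAs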

MED28: viability hit class = no change (active); caspase hit class = CA2 (caspase activation); viability robust z-score = -0.72; caspase robust z-score = 5.46
SNAP29: viability hit class = no change; caspase hit class = no change; viability robust z-score = -0.44; caspase robust z-score = -0.41
EHMT1: viability hit class = no change; caspase hit class = no change; viability robust z-score = -0.52; caspase robust z-score = 0.26
KAT5: viability hit class = no change; caspase hit class = no change; viability robust z-score = -1.05; caspase robust z-score = -0.54
FIG4: viability hit class = no change; caspase hit class = no change; viability robust z-score = -0.8; caspase robust z-score = -0.56
TOR1AIP1: viability hit class = no change; caspase hit class = no change; viability robust z-score = 1.23; caspase robust z-score = -0.38
IKZF2: viability hit class = no change; caspase hit class = no change; viability robust z-score = -0.33; caspase robust z-score = -1.32
GSC: viability hit class = no change; caspase hit class = no change; viability robust z-score = -2.62; caspase robust z-score = 1.82
EXO5: viability hit class = no change; caspase hit class = no change; viability robust z-score = 0.7; caspase robust z-score = 0
ZNF571: viability hit class = no change; caspase hit class = no change; viability robust z-score = 0.4; caspase robust z-score = 0.71
SLC32A1: viability hit class = no change; caspase hit class = no change; viability robust z-score = 0.32; caspase robust z-score = 1.62
TMEM237: viability hit class = no change; caspase hit class = no change; viability robust z-score = 0.82; caspase robust z-score = 0.01
